Measurements reported in PubChem BioAssay AID1259254 (NCATS, 2017).

Screen: 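Genome-wide screen for genes that prevent DNA re-replication in cancer cells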 (primary screen)
System: human HCT116 colorectal cancer cells
Reagents: single siRNA against human genes
Timing: 3 days
Read-out: 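Nuclei stained with Hoechst and imaged; cell-cycle phase assigned by DNA content; G2 share scaled per plate, non-targeting siRNA 0%, GMNN siRNA 100%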
Direction: G2 robust z-score and G2 cells, % of GMNN control: higher = more G2 cells, more excess DNA replication; raw share of cells in G2: higher = larger share of cells with G2 DNA content
Hit rule: 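An siRNA counts as active if its G2 robust z-score lies at least 5 MADs above the screen median; here such calls match roughly 38% of GMNN control or more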
Here is a random part of about 59,000 deposited reagents. About 1,550 of them (2.6%) count as active. 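G2 share is only a proxy for re-replication; each gene was hit by three separate siRNAs, and active genes were retested.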 Raw values are not corrected between plates. A number with no mark means an inactive call. Not stated in the record: the amount of reagent.

| gene | PubChem SID | G2 robust z-score | G2 cells, % of GMNN control | raw share of cells in G2 (%) |
| --- | --- | --- | --- | --- |
| RPS23P8 | SID160726406 | 0.77 | 8.39 | 5.27 |
| RPS23P8 | SID160771042 | 1.08 | 10.5 | 7.91 |
| RPS23P8 | SID160771043 | 3.88 | 30.2 | 14.3 |
| LOC642947 (retired record) | SID160733793 | -0.533 | -0.786 | 2.92 |
| LOC642947 (retired record) | SID160768740 | -0.651 | -1.61 | 3.03 |
| LOC642947 (retired record) | SID160768741 | 1.51 | 13.6 | 8.17 |
| NRDC | SID160778237 | -0.419 | 0.019 | 5.57 |
| NRDC | SID160778238 | 0.145 | 3.98 | 6.32 |
| NRDC | SID160778239 | -0.732 | -2.18 | 3.1 |
| OR1M1 | SID160756361 | 0.636 | 7.45 | 6.98 |
| OR1M1 | SID160756362 | -1.3 | -6.2 | 1.14 |
| OR1M1 | SID160756363 | -0.335 | 0.612 | 2.8 |
| SLC10A1 | SID160716921 | -0.0197 | 2.83 | 5.52 |
| SLC10A1 | SID160716922 | -1.38 | -6.75 | 3.41 |
| SLC10A1 | SID160731757 | -0.298 | 0.869 | 4.25 |
| L3MBTL4 | SID160732136 | 1.44 | 13.1 | 11.8 |
| L3MBTL4 | SID160753896 | -0.0194 | 2.83 | 6.18 |
| L3MBTL4 | SID160753897 | 1.06 | 10.4 | 8.42 |
| GGNBP2 | SID160749715 | 0.883 | 9.18 | 8.26 |
| GGNBP2 | SID160749716 | -0.156 | 1.87 | 5.12 |
| GGNBP2 | SID160749717 | 1.28 | 12 | 5.65 |
| IGFL2-AS1 | SID160769601 | -0.104 | 2.23 | 4.62 |
| IGFL2-AS1 | SID160769602 | 0.0121 | 3.05 | 4.36 |
| IGFL2-AS1 | SID160769603 | -0.557 | -0.953 | 2.74 |
| PPM1L | SID160759148 | -0.102 | 2.25 | 5.53 |
| PPM1L | SID160759149 | -1.27 | -5.99 | 2.5 |
| PPM1L | SID160759151 | -0.862 | -3.1 | 2.56 |
| POLE3 | SID160731446 | -0.701 | -1.96 | 3.05 |
| POLE3 | SID160741578 | 0.756 | 8.29 | 9.71 |
| POLE3 | SID160741579 | -0.42 | 0.0115 | 4.25 |
| ODC1 | SID160778350 | 2.07 | 17.5 | 11.8 |
| ODC1 | SID160778351 | 2.45 | 20.2 | 13 |
| ODC1 | SID160778352 | -0.256 | 1.16 | 3.6 |
| TRAPPC10 | SID160718164 | -0.199 | 1.57 | 5.31 |
| TRAPPC10 | SID160718165 | -0.839 | -2.94 | 4.22 |
| TRAPPC10 | SID160731840 | 1.37 | 12.6 | 9.3 |
| PLEKHF2 | SID160749139 | 0.291 | 5.01 | 4.56 |
| PLEKHF2 | SID160749141 | -0.947 | -3.7 | 4.24 |
| PLEKHF2 | SID160749142 | -0.351 | 0.498 | 3.79 |
| NFKBIL1 | SID160723954 | -0.602 | -1.27 | 2.78 |
| NFKBIL1 | SID160778034 | -1.24 | -5.77 | 3.13 |
| NFKBIL1 | SID160778035 | -1.36 | -6.59 | 2.86 |
| KRT18 | SID160776424 | -0.704 | -1.99 | 4.32 |
| KRT18 | SID160776425 | -0.807 | -2.71 | 4.65 |
| KRT18 | SID160776426 | 1.43 | 13 | 8.97 |
| SLC6A4 | SID160716861 | 1.8 | 15.6 | 9.13 |
| SLC6A4 | SID160716863 | 4.13 | 32 | 16.5 |
| SLC6A4 | SID160716864 | 2.33 | 19.4 | 11.2 |
| DPT | SID160756037 | -0.975 | -3.89 | 1.92 |
| DPT | SID160756047 | 2.51 | 20.6 | 14.5 |
| DPT | SID160756058 | 0.904 | 9.33 | 6.49 |
| PPP1R15B | SID160752937 | 1.9 | 16.4 | 10.7 |
| PPP1R15B | SID160752938 | -0.377 | 0.314 | 5.1 |
| PPP1R15B | SID160752940 | 2.85 | 23 | 16.3 |
| MBOAT1 | SID160759401 | -1.41 | -6.95 | 1.78 |
| MBOAT1 | SID160759402 | 0.502 | 6.5 | 9.06 |
| MBOAT1 | SID160759403 | -0.615 | -1.36 | 4.2 |
| LOC390282 | SID160766478 | -0.44 | -0.126 | 3.73 |
| LOC390282 | SID160766479 | -0.46 | -0.266 | 3.29 |
| LOC390282 | SID160766480 | -0.139 | 1.99 | 5.49 |
| ASAH2 | SID160745083 | -0.695 | -1.92 | 5.59 |
| ASAH2 | SID160745084 | -1.11 | -4.84 | 2.7 |
| ASAH2 | SID160745085 | -0.405 | 0.121 | 4.38 |
| CA5A | SID160732444 | -1.2 | -5.48 | 2.85 |
| CA5A | SID160732536 | 1.02 | 10.2 | 8.69 |
| CA5A | SID160732619 | 3.54 | 27.9 | 14.4 |
| TPK1 | SID160738241 | -0.505 | -0.586 | 5.41 |
| TPK1 | SID160738242 | 0.113 | 3.76 | 6.56 |
| TPK1 | SID160738243 | 0.294 | 5.03 | 5.29 |
| FCN3 | SID160720306 | -0.647 | -1.58 | 3 |
| FCN3 | SID160720308 | 0.0155 | 3.08 | 7.36 |
| FCN3 | SID160720309 | -0.578 | -1.1 | 2.88 |
| SNRPD2 | SID160717131 | 3.26 | 25.9 | 14.4 |
| SNRPD2 | SID160717132 | 2.09 | 17.7 | 10.6 |
| SNRPD2 | SID160731772 | 0.808 | 8.66 | 6.82 |
| GUSBP18 | SID160725626 | 0.0221 | 3.12 | 4.06 |
| GUSBP18 | SID160768858 | -0.645 | -1.57 | 3.04 |
| GUSBP18 | SID160768860 | -0.0779 | 2.42 | 4.14 |
| MRPL36 | SID160748188 | 4.77 | 36.5 | 20.5 |
| MRPL36 | SID160748190 | 0.569 | 6.97 | 7.73 |
| MRPL36 | SID160748191 | 6.81 (active) | 50.9 | 16.1 |
| ADRA1D | SID160714862 | 0.145 | 3.99 | 7.27 |
| ADRA1D | SID160714872 | -1.1 | -4.79 | 2.84 |
| ADRA1D | SID160714882 | 0.656 | 7.58 | 5.59 |
| PTPRQ | SID160765276 | 1.76 | 15.4 | 9.27 |
| PTPRQ | SID160765277 | -0.889 | -3.29 | 1.82 |
| PTPRQ | SID160765278 | 0.468 | 6.26 | 6.71 |
